Where a chain is given by its changes, count along the chain named. Results are given in words; binding and its absence hold for the method and conditions named. Binding can be weak; no strength is given. Each block holds one binder with its values, some of them ahead of it.
Target: mouse Jagged 1 (mouse)
Assay: ELISA as for the other curves; sheet and legend say mouse Jagged 1, the method lists rat Jagged 1-Fc as the coated protein

- binding: binds
B1: anti-Jagged 13 IgG (antibody, V domains shown)
VH: EVQLLESGGGLVQPGGSLRLSCAASGFTFSSYAMSWVRQAPGKGLEWVSSIETQGPTTLYADSVKGRFTISRDNSKNTLYLQMNSLRAEDTAVYYCAKTSSAFDYWGQGTLVTVSS
VL: DIQMTQSPSSLSASVGDRVTITCRASQSISSYLNWYQQKPGKAPKLLIYASSLQSGVPSRFSGSGSGTDFTLTIGSLQPEDFATYYCQQNVATPLTFGQGTKVEIKR

- binding: binds
B2: anti-Jagged 32 IgG (antibody, V domains shown)
VH: B1 VH with T53Q, Q54M, P56W, T57Q, L59Y, T99S, S100A, S101A
VL: B1 VL with S51A, G75S, N90T, A92V, T93A

From patent US20190367589A1
